In all, about 340,000 compounds went through this assay and about 170 (0.05%) were called active. The shares of active, inactive and inconclusive entries below differ from those in the screen. The call rests on the fitted dose curve; in most records, active means well fitted inhibition curve with a large enough effect in the signal ratio, with a control signal flat (not every such curve was filed as active); inconclusive means small, poorly fitted or top-dose-only effect, or effect the other way, or a change in a side signal; inactive means flat fitted curve, though single readings scatter; the % refers to the signal ratio. Where the call is inconclusive, the potency comes from a doubtful curve fit.
Experiment: qHTS Assay to Find Inhibitors of Chronic Active B-Cell Receptor Signaling;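 on activity change, negative = inhibition: plate controls were basal doxycycline-induced cells for no effect and cells given 10 µM MG132 for full effect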
Details: ABC-DLBCL IkBa-CBG/CBR reporter, luminescence ratio (green luciferase fused to IkBa over red control in TMD8 lymphoma cells), 4 h; activity change, negative = inhibition: at 46.1 µM (top of the series)
Procedure, shortened: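 Doxycycline induced both beetle luciferases in TMD8 lymphoma cells; IKK-driven degradation limits the IkappaBalpha-fused green signal, while red luminescence normalises for cell number and nonspecific effects. Compounds tested up to 46 uM, 4 hrs.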
For Cc1ccc(-c2nc(CSCC(=O)N3CCN(c4ccccn4)CC3)c(C)o2)cc1, the activity change, negative = inhibition was “inactive”.
In the case of CCOC(=O)c1nn(-c2ccc(F)cc2)c(C)c1C(C)=O, the activity change, negative = inhibition is reported as inconclusive: -5.16%.
For C=CC[n+]1c(-c2ccc(Cl)cc2Cl)csc1Nc1c(C)n(C)n(-c2ccccc2)c1=O, the activity change, negative = inhibition was inconclusive: -1.01%.
In the case of Cc1c(/C=N/NC(N)=O)c2ccccn2c1C(=O)c1ccncc1, the activity change, negative = inhibition is reported as inconclusive: -9.31%.
For CC(C)CCN1CCN(Cc2ccc(C#CCCO)cc2)CC1CCO (stereo not drawn), the activity change, negative = inhibition was “inactive”.
With CN(CC(=O)Nc1ccc(F)c(F)c1F)C(=O)CN1C(=O)C2CCCCC2C1=O (stereo not drawn) the activity change, negative = inhibition was “inactive”.
With CC(=O)NC12CC3CC(CC(CC(=O)O)(C3)C1)C2 the activity change, negative = inhibition was inconclusive: 5.1%.
For CCCc1ccccc1OCCNC(C)=O, the activity change, negative = inhibition was inconclusive: -1.03%.
For CCCCOc1ccc(-c2n[nH]c(=S)n2Cc2ccccc2)cc1, the activity change, negative = inhibition was inconclusive: 3.98%.
For COc1cccc(C(=O)NCC(=O)OCC(=O)NC2CCCCC2)c1, the activity change, negative = inhibition was inconclusive: 7.57%.
In the case of COc1cccc2c(C)c(C(=O)O)[nH]c12, the activity change, negative = inhibition is reported as inconclusive: 29.6%.
In the case of CCOC(=O)c1ccc(NC(=O)COc2ccccc2CNCCO)cc1, the activity change, negative = inhibition is reported as inconclusive: -8.87%.
With CC1CCN(CCCOc2ccc(Br)cc2Cl)CC1 the activity change, negative = inhibition was “inactive”.
For CCC(=O)Nc1nc2c(c(=O)[nH]1)CCCC2, the activity change, negative = inhibition was inconclusive: 2.89%.
With Cc1snc2sc(C(=O)c3ccc(F)cc3)c(N)c12 the activity change, negative = inhibition was “inactive”.
For S=C(NCc1ccc(Cl)c(Cl)c1)Nc1ccc2c(c1)OCO2, the activity change, negative = inhibition was inconclusive: 4.75%.
With Cc1ccc(OCc2nc(C#N)c(NCc3ccc4c(c3)OCO4)o2)cc1 the activity change, negative = inhibition was inconclusive: -21.5%.
With CCOC(=O)C1(Cc2cccc(OC)c2)CCN(Cc2cc(OC)ccc2OC)CC1 the activity change, negative = inhibition was “inactive”.
In the case of Cc1ccc2oc3c(c(=O)c2c1)C(c1ccc(F)cc1)N(CCCN1CCOCC1)C3=O (stereo not drawn), the Potency is reported as inconclusive: 5.17 µM [rising, full curve, poor fit].
With Cc1ccc(N2CC(C(=O)N3CCC4(CC3)CC(=O)c3ccccc3O4)CC2=O)cc1 (stereo not drawn) the activity change, negative = inhibition was “inactive”.
With Fc1cccc(Cl)c1C1Nc2cccc3cccc(c23)N1 the activity change, negative = inhibition was “inactive”.
For CC(C(=O)Nc1ccc(O)cc1C(=O)O)N1C(=O)/C(=C\c2cccs2)SC1=S (stereo not drawn), the activity change, negative = inhibition was inconclusive: -13%.
In the case of CC(C)C[C@]1(c2ccccc2)ON(c2ccccc2C(F)(F)F)C1=O, the activity change, negative = inhibition is reported as “inactive”.
With Cc1ccc(NC(=S)N/N=C2\CC(C)(C)Oc3ccc(O)cc32)cc1 the Potency was inconclusive: 16.4 µM [falling, single point].
In the case of CCCc1cc(=O)oc2cc(C)cc(OCC(=O)Nc3ccccn3)c12, the activity change, negative = inhibition is reported as inconclusive: -1.15%.
In the case of CSc1nc2ccc(Nc3nc(N4CCOCC4)nc(N4CCOCC4)n3)cc2s1, the activity change, negative = inhibition is reported as “inactive”.
In the case of CCN1C(=S)N[C@@H](c2cccc(C(F)(F)F)c2)C(C(=O)OC)=C1C, the activity change, negative = inhibition is reported as inconclusive: -10.4%.
With COc1cc(-c2nc(S(=O)(=O)c3ccc(Cl)cc3)c(N3CCOCC3)o2)cc(OC)c1OC the activity change, negative = inhibition was “inactive”.
In the case of Cc1ccc2[nH]c(C(=O)NN=C3CCCCC3)c(-c3ccccc3)c2c1, the Potency is reported as inconclusive: 2.82 µM [falling, full curve, poor fit].
In the case of Cc1cccc(NC(=S)N/N=C/c2ccc([N+](=O)[O-])s2)c1, the Potency is reported as inconclusive: 35.5 µM [falling, single point].
In the case of COc1ccc(CN2CC(=O)N(c3cc(Cl)ccc3C)C2=S)cc1OC, the activity change, negative = inhibition is reported as “inactive”.
With CCC(CC)c1nnc(NC(=O)CCCN2C(=O)c3ccccc3C2=O)s1 the Potency was inconclusive: 11.6 µM [rising, partial curve, poor fit].
With COc1ccc(OC)c(S(=O)(=O)Nc2cccc(-c3ccc4nncn4n3)c2)c1 the Potency was inconclusive: 15.8 µM [falling, partial curve].
For O=S(=O)(Nc1cc(C(F)(F)F)ccc1N1CCOCC1)c1ccccc1, the activity change, negative = inhibition was “inactive”.
With CC1CCN(C(=O)CSc2nc3c(c(=O)n(C)c(=O)n3C)n2C)CC1 the activity change, negative = inhibition was inconclusive: 12%.
With CCN(CC)c1nc2c(s1)C(=O)CC(C)(C)C2 the activity change, negative = inhibition was inconclusive: -2.33%.
For CCNc1nc(SC(C)C(=O)Nc2ccccc2)nc(N2CCOCC2)n1 (stereo not drawn), the activity change, negative = inhibition was inconclusive: 16.4%.
For O=C(CN1CCN(S(=O)(=O)c2ccc(Cl)cc2)CC1)NCC1(N2CCOCC2)CCCCC1, the activity change, negative = inhibition was inconclusive: -1.8%.
With COc1ccc(S(=O)(=O)NCC(=O)Nc2ccc(F)cc2)cc1 the activity change, negative = inhibition was inconclusive: -0.819%.
In the case of COc1ccccc1NS(=O)(=O)c1cccc(C(=O)NC2CCN(Cc3ccccc3)CC2)c1, the activity change, negative = inhibition is reported as “inactive”.
With CC1CCN(CCCNC(=O)c2ccc(Cn3c(=S)[nH]c4ccc(Br)cc4c3=O)cc2)CC1 the Potency was inconclusive: 17.8 µM [falling, single point].
With CCOC(=O)CNC(=O)CSc1nnc(SCC(=O)NCC(=O)OCC)s1 the activity change, negative = inhibition was inconclusive: 9.25%.
For CCCC(=O)Oc1ccc2c(C)cc(=O)oc2c1, the activity change, negative = inhibition was inconclusive: -1.7%.
With O=C1/C(=C/c2ccc(Cl)cc2)SC(=S)N1CCC(=O)N1CCCCC1CCO (stereo not drawn) the Potency was inconclusive: 11.2 µM [falling, partial curve].
For FC(F)(F)c1cnc(Nc2ccc(N3CCOCC3)cc2)c(Cl)c1, the activity change, negative = inhibition was inconclusive: -0.363%.
For COC(=O)c1ccc(NC(=O)NC2CCCCC2)cc1, the activity change, negative = inhibition was inconclusive: -1.1%.
With O=C(O)c1ccc(Cl)c(S(=O)(=O)N(Cc2ccccc2)c2ccccc2Cl)c1 the activity change, negative = inhibition was “inactive”.
For CC1CCCN(S(=O)(=O)c2ccc(C(=O)Nc3nnc(-c4ccco4)o3)cc2)C1 (stereo not drawn), the activity change, negative = inhibition was “inactive”.
With Cc1nc(C(=O)N(C)C)nn1-c1cc(Cl)ccc1Cl the activity change, negative = inhibition was inconclusive: 0.514%.
For COc1ccc2nc3ccccc3nc2c1, the Potency was inconclusive: 3.16 µM [rising, full curve].
With CCN(CC)S(=O)(=O)c1cc(NC(=O)COC(=O)Cn2cnc3ccccc32)ccc1C the activity change, negative = inhibition was “inactive”.
With COc1ccc2c(C(=O)CN(C)C3CCCCC3)c[nH]c2c1 the Potency was inconclusive: 20.6 µM [falling, partial curve].
For COc1c(OC(C)=O)ccc(/C=C/c2ccc3cccc(OC)c3n2)c1[N+](=O)[O-], the Potency was inconclusive: 20.6 µM [falling, single point].
In the case of O=C(CCN1C(=O)/C(=C/c2ccc(F)cc2)SC1=S)NC1C=CS(=O)(=O)C1 (stereo not drawn), the activity change, negative = inhibition is reported as inconclusive: -16.4%.
In the case of Cc1ccc(-c2ocnc2C(=O)Nc2nc(C)cs2)cc1, the activity change, negative = inhibition is reported as inconclusive: 8.56%.
For O=C(CN1C(=O)C2C3C=CC(C3)C2C1=O)NCCc1ccccc1 (stereo not drawn), the activity change, negative = inhibition was “inactive”.
In the case of COc1ccc(/C=N/NC(=O)Cn2cnc3ccccc3c2=O)cc1, the activity change, negative = inhibition is reported as inconclusive: -24%.
With COc1ccc(OC)c(C(=O)COC(=O)c2[nH]c(C)c(C(C)=O)c2C)c1 the Potency was inconclusive: 20.6 µM [falling, single point].
For COC(=O)C1=C(C)NC2=C(C(=O)CCC2)C1c1cn(Cc2ccc(Cl)cc2Cl)nc1-c1ccccc1 (stereo not drawn), the activity change, negative = inhibition was inconclusive: 7.69%.
For CC(=O)Nc1sc(C)c(C)c1C(=O)OCC(=O)Nc1cc(S(=O)(=O)N2CCCCC2)ccc1Cl, the activity change, negative = inhibition was inconclusive: 0.744%.
With Cn1cccc1C(=O)NC(=O)COC(=O)CCNS(=O)(=O)c1ccc(Cl)cc1 the activity change, negative = inhibition was inconclusive: 0.204%.
For CCN(CC(=O)Nc1c(F)cccc1F)C(=O)c1ccc2c(c1)NC(=O)C(C)S2 (stereo not drawn), the activity change, negative = inhibition was inconclusive: 6.92%.
For CCOC(=O)/C=c1\s/c(=C\c2ccc3c(c2)OCCO3)c(=O)n1CC(=O)NCC1CCCO1 (stereo not drawn), the activity change, negative = inhibition was inconclusive: 1.69%.
In the case of CC(C)c1ccc(-c2nnn(CCC(=O)O)n2)cc1, the Potency is reported as inconclusive: 17.8 µM [falling, partial curve].
For CN(c1ccccc1)c1ccc(/C=C(\CCC(=O)O)c2nc3ccccc3s2)cc1[N+](=O)[O-], the activity change, negative = inhibition was “inactive”.
In the case of C/C=C(\C)CN1CCC(n2nccc2NC(=O)CCOc2ccccc2)CC1, the activity change, negative = inhibition is reported as “inactive”.
In the case of COc1ccccc1N1CCN(c2cc(C)nc3c(-c4ccc(Cl)cc4)c(C)nn23)CC1, the activity change, negative = inhibition is reported as “inactive”.
For COc1ccc2[nH]c3c(c2c1)CCNC3(C)CCc1ccc(Cl)nc1 (stereo not drawn), the activity change, negative = inhibition was inconclusive: -6.92%.
In the case of CCS(=O)(=O)N1CCN(c2cc3c(cc2[N+](=O)[O-])n(C)c(=O)n3C)CC1, the activity change, negative = inhibition is reported as inconclusive: 14.2%.
For N#Cc1c(NC(=O)C(=O)NCCCN2CCOCC2)sc2c1CCC2, the activity change, negative = inhibition was inconclusive: 0.0412%.
With CC(=O)c1sc(NC(=O)C2COc3ccccc3O2)nc1C (stereo not drawn) the Potency was inconclusive: 5.17 µM [falling, single point].
In the case of CC1CCN(C(=O)COC(=O)COc2ccccc2C#N)CC1, the activity change, negative = inhibition is reported as inconclusive: 1.34%.
For O=C(NCc1cccc(Cl)c1)c1ccc2c(c1)OCCO2, the activity change, negative = inhibition was “inactive”.
For NCCCC[C@H]1CNC(=S)N1CC1CCCCC1, the activity change, negative = inhibition was inconclusive: 15.3%.
For Cc1ccc(CSCCNS(=O)(=O)c2ccccc2)cc1, the activity change, negative = inhibition was “inactive”.
In the case of O=C(NNC(=O)c1ccncc1)Nc1ccc([N+](=O)[O-])cc1, the Potency is reported as inconclusive: 15.8 µM [falling, partial curve].
For O=C(CNS(=O)(=O)c1ccccc1F)NNC(=O)c1ccc(Br)cc1, the activity change, negative = inhibition was “inactive”.
With COc1cc(NC(=O)C/C(C)=N/NC(=O)c2cccs2)c(OC)cc1Cl the Potency was inconclusive: 35.5 µM [falling, single point].
With CCCN(Cc1cc2cc(C)ccc2[nH]c1=O)S(C)(=O)=O the activity change, negative = inhibition was inconclusive: 1.25%.
For CCC1CN(C(=O)N2CCC(C(=O)NCc3ccco3)CC2)c2cc(C)ccc2O1 (stereo not drawn), the activity change, negative = inhibition was “inactive”.
With Nc1cccc2c1C(=O)N(Cc1cccc(Cl)c1)C2=O the Potency was inconclusive: 20 µM [falling, partial curve, poor fit].
With C[C@]12c3[nH]c4cc(-c5ccco5)ccc4c3CCN1C(=O)[C@@H](CC(=O)NCCc1ccccn1)C[C@@H]2C(=O)N1CCCCC1 the activity change, negative = inhibition was inconclusive: -16%.
With S=C(NCc1ccccc1)N1CCn2cccc2C1c1cccnc1 (stereo not drawn) the activity change, negative = inhibition was inconclusive: 9.03%.
Potency means the concentration at half of the fitted maximal effect.
